The values that follow are results of earlier work, collected in patent US5441887A, “Rapid degradation of halogenated hydrocarbons by soluble methane monooxygenase” (Regents of the University of Minnesota, priority 1994, dated 1995).

The subject of this data set is methanogenic mixed bacterial culture. Conditions: 2-day retention time, influent about 15-40 μg/l; cited from earlier work.
On to `CC(Cl)(Cl)Cl` [1,1,1-trichloroethane], for which the “Degradation under methanogenic conditions” value (shortened to “Degradation”) is recorded as “substantially degraded”.

`ClC(Cl)C(Cl)Cl` [1,1,2,2-tetrachloroethane]: the “Degradation” value is recorded as “substantially degraded”.

In the case of `ClC(Cl)=C(Cl)Cl` [PCE, tetrachloroethylene], the “Degradation” value is listed as “substantially degraded”.

As to `ClC(Cl)Br` [bromodichloromethane], the “Degradation” value is listed as “substantially degraded”.

Turning to `BrC(Br)Br` [bromoform], the “Degradation” value is given as “substantially degraded”.

With `ClC(Cl)(Cl)Cl` [carbon tetrachloride], the “Degradation” value is recorded as “substantially degraded”.

Turning to `ClC(Cl)Cl` [chloroform], the “Degradation” value is on record as “substantially degraded”.

For `ClC(Br)Br` [dibromochloromethane], the “Degradation” value is recorded as “substantially degraded”.
